Measurements: US20240182526A1 (University of Southern California, priority 2021, published 2024)

Experiment: peptide made by a vendor
Details: whole synthesis

Substance | purity (crude or final not stated)
PRQP[pY]FKQNC | purity>=85%
PRQPYFKQNC | purity>=85%

Where a sequence shows no end group, the ends are not given. Where no end group is shown, it is not given here. [ ]: non-standard residue; d: D form. pY = N[C@@H](Cc1ccc(OP(=O)(O)O)cc1)C(=O)O
